## Screening data, single-dose tests

The values are deposited in ChEMBL (CHEMBL3988442, “University of Dundee, Small-Polar-MMV Screening Library” (2021)).

The filed quantity is “Percent Effect” (%). How 0% and 100% were set is not recorded. Most values in the screen are low, and negative values occur. The compounds are a random part of those screened. Two or more numbers in one place are separate tests of the same structure; such repeats can differ widely.

A: 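Whole-cell growth test on Mycobacterium tuberculosis, read after 3 days in glucose-containing 7H9 medium; the read-out is not stated. Concentration: 50 µM. Higher reads as more growth inhibition (inferred: compounds with an IC50 in retests scored well above the rest). Of about 69,000 compounds tested this way, about 760 (1.1%) reached 50% or more in at least one test.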
B: 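Phenotypic screen: M. tuberculosis growth, cholesterol and DPPC medium, 4 days; the read-out is not stated. Compounds at 50 µM. Higher reads as more growth inhibition (inferred: compounds with an IC50 in retests scored well above the rest). Size under these conditions: about 69,000 compounds, about 370 of them at 50% or above in at least one test.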

{"compound": "Cc1cc(NC(=O)NCc2ccc(C)s2)no1", "A": "-0.7109 and 6.002", "B": -9.467}
{"compound": "CCN1CCNC(=O)C12CCN(S(=O)(=O)c1ccc(F)cc1)CC2", "A": -7.02, "B": -16.78}
{"compound": "Cc1nn(C)cc1CN1CCc2nc(-c3cccnc3)nc(O)c2C1", "A": 16.25, "B": 7.242}
{"compound": "O=C(NCCn1nc2ccccn2c1=O)c1scnc1Cl", "A": -4.944, "B": -17.62}
{"compound": "O=C(c1nsc(Cl)c1Cl)N1CCc2nc3sccc3c(=O)n2CC1", "A": 23.23, "B": -1.158}
{"compound": "Cc1cc(CN(Cc2ccccc2)C2CC2)on1", "A": -3.918, "B": 11.31}
{"compound": "COCC(C)NC(=O)c1sccc1-n1cnnn1", "stereo": "stereo not drawn", "A": 14.13, "B": 8.35}
{"compound": "Cc1ccc2cc(C(=O)N3CCN(S(C)(=O)=O)CC3)[nH]c2c1", "A": 1.13, "B": -17.16}
{"compound": "O=C(O)C(F)(F)F.[H][C@@]12CCCO[C@]1([H])[C@@H](NC(=O)N(C)C)CN2Cc1ccc2c(c1)OCO2", "A": 3.717, "B": "-7.796 and -8.889"}
{"compound": "Cl.Cl.c1ccc(COC[C@H]2CCC[C@@]23CNCCO3)nc1", "A": -78.57, "B": -11.19}
{"compound": "c1ccc(Cc2nnc(CN3CCc4cncnc4C3)o2)cc1", "A": -22.6, "B": -21.66}
{"compound": "O=C(O)C(F)(F)F.[H][C@@]12CCN(Cc3ccc4c(c3)OCO4)C[C@]1([H])O[C@H](C(=O)N1CCCC1)C2", "A": 5.965, "B": -7.287}
{"compound": "Cc1ccc(C)c(CSc2nnc([C@@H](N)C(C)C)o2)c1.Cl", "A": 9.422, "B": 14.43}
{"compound": "CCc1nc(CN2CCCC(NCc3nc4cccnc4[nH]3)C2)no1", "stereo": "stereo not drawn", "A": -1.235, "B": -6.911}
{"compound": "COc1ccc(CC(=O)N2CCCC2Cn2cc(C)cn2)cc1OC", "stereo": "stereo not drawn", "A": -7.744, "B": -9.757}
{"compound": "CCNc1ncc(CN2C[C@@H](C(=O)O)[C@H](C3CC3)C2)cn1", "A": 3.165, "B": 12.25}
{"compound": "CCc1nccn1C1CCCN(C(=O)c2ccc3nnc(C)n3c2)C1", "stereo": "stereo not drawn", "A": 18.41, "B": 2.809}
{"compound": "O=C(NCCn1ccnc1)N1CCCC1c1ccc2c(c1)OCCO2", "stereo": "stereo not drawn", "A": 32.95, "B": 8.609}
{"compound": "Cc1noc(C)c1CN(C)Cc1cnc(N2CCOCC2)nc1", "A": -33.86, "B": -10.76}
{"compound": "Cc1ccc(N2CCCC(NCc3ccc(C)o3)C2)nn1", "stereo": "stereo not drawn", "A": 5.711, "B": 0.07913}
{"compound": "Cc1cccc(C(=O)NCc2ccc(N3CCCCC3)nc2)n1", "A": -7.905, "B": -22.96}
{"compound": "CC(C(=O)NCCCN1CCCCCC1=O)n1cncn1", "stereo": "stereo not drawn", "A": -30.17, "B": -16.53}
{"compound": "[H][C@]12CCN(C(=O)C3CC=CC3)[C@@]1([H])CC[C@@H](COCC1CCOCC1)O2", "A": "9.749 and -4.875", "B": 11.35}
{"compound": "O=C(O)C(F)(F)F.O=C(O)C(F)(F)F.[H][C@@]12CCN(c3nnc(C)s3)[C@]1([H])CC[C@@H](C(=O)NCc1ccccn1)O2", "A": 8.703, "B": 3.832}
{"compound": "O=C(c1ccc(Br)o1)N1CCN(Cc2ccc(OC(F)(F)F)cc2)CC1", "A": "28.43 and 38.24", "B": 70.77}
{"compound": "Cc1cc(C[C@@H]2CCC[C@H]2NCc2cc(C)c(O)c(C)c2)on1.O=C(O)CC(O)(CC(=O)O)C(=O)O", "A": 7.045, "B": -10.91}
{"compound": "NC(=O)C1CCCN1c1cc(N2CCc3ccccc3C2)ncn1", "stereo": "stereo not drawn", "A": 11.78, "B": 7.514}
{"compound": "OC(COCc1ccccc1)CN1CC(n2cccn2)C1", "stereo": "stereo not drawn", "A": 45.19, "B": -51.17}
{"compound": "O=C(NC(C(=O)Nc1cc[nH]n1)c1ccccc1)C1CCC1", "stereo": "stereo not drawn", "A": "6.713 and -10.46", "B": 9.579}
{"compound": "CNCc1cn(C[C@H]2CC3CCN2C[C@@H]3C(=O)Nc2ccccc2)nn1", "stereo": "stereo partly drawn", "A": "7.927 and -8.124", "B": 15.59}
{"compound": "O=C(O)C(F)(F)F.O=C(O)C(F)(F)F.[H][C@@]12COC[C@]1([H])[C@@H](OCc1csc(C)n1)CN2Cc1cccc(C)n1", "A": 2.707, "B": 12.6}

For reference, 3 entries once more:

- Cc1ccc(N2CCCC(NCc3ccc(C)o3)C2)nn1 (stereo not drawn) | A: 5.711%; B: 0.07913%
- O=C(O)C(F)(F)F.O=C(O)C(F)(F)F.[H][C@@]12COC[C@]1([H])[C@@H](OCc1csc(C)n1)CN2Cc1cccc(C)n1 | A: 2.707%; B: 12.6%
- Cc1nn(C)cc1CN1CCc2nc(-c3cccnc3)nc(O)c2C1 | A: 16.25%; B: 7.242%